Source: patent US20240358831A1, “SELECTION OF IMMUNE CELLS USING PEPTIDE MHC COMPLEXES GENERATED BY CONDITIONAL LIGAND EXCHANGE” (IMMATICS US, INC., priority 2021, published 2024)

Assay: Detection frequency of HLA presented peptides on normal tissue by LC-MS
Parameters: species or system human
Conditions: YES/NO; frequently presented in a tissue independent manner

Sequence	House-keeping peptide
AEIDARNDSF (listed as Homo sapiens) [SPTBN1-001, parental peptide]	YES
AESIVVHTY (listed as Homo sapiens) [CSE1-004, parental peptide]	YES
ALFLTLTTK (listed as Homo sapiens) [GIBB-001, parental peptide]	YES
APRTVALTAL (listed as Homo sapiens) [HLA-DPB1-001, parental peptide]	YES
AYVHMVTHF (listed as Homo sapiens) [TEG-001, parental peptide]	YES
DAVVKHVL (listed as Homo sapiens) [COPA-007, parental peptide]	YES
DLNEKARAL (listed as Homo sapiens) [PDCD10-001, parental peptide]	YES
FGLARAFSL (listed as Homo sapiens) [MIR286-001, parental peptide]	YES
IIYKGGTSR (listed as Homo sapiens) [GSN-001, parental peptide]	YES
ILMEHIHKL (listed as Homo sapiens) [RPL19-001, parental peptide]	YES
KYPENFFLL (listed as Homo sapiens) [PPP1CA-001, parental peptide]	YES
LLDQGQLNKY (listed as Homo sapiens) [CLTC-001, parental peptide]	YES
NENSLFKSL (listed as Homo sapiens) [CLTC-005, parental peptide]	YES
RLFVGSIPK (listed as Homo sapiens) [HNRNPR-001, parental peptide]	YES
SPRPPLISV (listed as Homo sapiens) [MUDENG-001, parental peptide]	YES
STDPRPASY (listed as Homo sapiens) [AXIN1-002, parental peptide]	YES
TVKQKYLSF (listed as Homo sapiens) [LOC646214-002, parental peptide]	YES
VTELHVISY (listed as Homo sapiens) [RNF213-009, parental peptide]	YES
YLLPAIVHI (listed as Homo sapiens) [DDX5-001, parental peptide]	YES

Same assay, conditions: percentage of normal tissue samples of the relevant HLA allotype where the peptide was detected

Sequence	Normals frequency [%]
AEIDARNDSF (listed as Homo sapiens) [SPTBN1-001, parental peptide]	90
AESIVVHTY (listed as Homo sapiens) [CSE1-004, parental peptide]	96
ALFLTLTTK (listed as Homo sapiens) [GIBB-001, parental peptide]	93
APRTVALTAL (listed as Homo sapiens) [HLA-DPB1-001, parental peptide]	92
AYVHMVTHF (listed as Homo sapiens) [TEG-001, parental peptide]	96
DAVVKHVL (listed as Homo sapiens) [COPA-007, parental peptide]	95
DLNEKARAL (listed as Homo sapiens) [PDCD10-001, parental peptide]	56
FGLARAFSL (listed as Homo sapiens) [MIR286-001, parental peptide]	70
IIYKGGTSR (listed as Homo sapiens) [GSN-001, parental peptide]	69
ILMEHIHKL (listed as Homo sapiens) [RPL19-001, parental peptide]	75
KYPENFFLL (listed as Homo sapiens) [PPP1CA-001, parental peptide]	100
LLDQGQLNKY (listed as Homo sapiens) [CLTC-001, parental peptide]	96
NENSLFKSL (listed as Homo sapiens) [CLTC-005, parental peptide]	93
NIKKKQEAL (listed as Homo sapiens) [SPTAN-001, parental peptide]	2
RLFVGSIPK (listed as Homo sapiens) [HNRNPR-001, parental peptide]	96
SPRPPLISV (listed as Homo sapiens) [MUDENG-001, parental peptide]	72
STDPRPASY (listed as Homo sapiens) [AXIN1-002, parental peptide]	93
STETSTVLY (listed as Homo sapiens) [MUC16-009, parental peptide]	0
TPKEKAQAL (listed as Homo sapiens) [MKI-002, parental peptide]	0
TVKQKYLSF (listed as Homo sapiens) [LOC646214-002, parental peptide]	30
VTELHVISY (listed as Homo sapiens) [RNF213-009, parental peptide]	95
YLLPAIVHI (listed as Homo sapiens) [DDX5-001, parental peptide]	98
